Measurements reported in PubChem BioAssay AID2685 (National Center for Advancing Translational Sciences (NCATS), 2010).
The list shows a part of the results. These are further read-outs of the screen, such as a control signal, another cell line or another target. No call is given for them. The list favours compounds with an active or inconclusive main result. Potencies come from curve fits of mixed quality, noted in brackets.

Assay: qHTS Assay for Lipid Storage Modulators in Drosophila S3 Cells;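 on cell number change: cells counted by Cell Tracker Red CMTPX staining in the red channel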
Settings: BODIPY lipid droplet fluorescence, 18-24 h; for cell number change: measured here: cell count max response, cells fed with added oleic acid
In short: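 Drosophila S3 cells loaded with oleic acid (400 uM, as added) and compounds at several concentrations; lipid droplets imaged by 488-nm laser-scanning cytometry, 500–530 nm intensity and object ratio to cell channel. Percent activity normalized to 20 uM Triacsin C.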

[1] = measured here: cell number channel AC50, cells fed with added oleic acid
[2] = measured here: lipid fluorescence (Fed channel) AC50, cells fed with added oleic acid

CCCN(CCC)C1CCc2ccc(O)cc2C1 (stereo unspecified)
cell number change: -38.3% | AC50 [1]: 29.1 µM [falling, single point] | AC50 [2]: 5.8 µM [falling, full curve]

Oc1cccc(/C=N/NP(=S)(c2ccccc2)c2ccccc2)c1
cell number change: -19.2% | AC50 [2]: 29.1 µM [falling, single point]

COc1ccc(-c2csc(NC(=O)COC(=O)Cc3ccccc3)n2)cc1OC
cell number change: 116% | AC50 [1]: 20.6 µM [rising, single point] | AC50 [2]: 1.03 µM [rising, partial curve]

Cc1cc(/C=C2\C(=O)NC(=O)N(c3ccc(F)cc3)C2=O)c(C)n1-c1ccc(C(=O)O)cc1
cell number change: -2.24% | AC50 [2]: 4.61 µM [falling, full curve, poor fit]

CCSC(=O)N1CCCCCC1
cell number change: 3.95% | AC50 [2]: 0.00461 µM [rising, full curve, poor fit]

COP(=S)(OC)SCN1C(=O)c2ccccc2C1=O
cell number change: 31.3% | AC50 [1]: 4.61 µM [rising, partial curve] | AC50 [2]: 0.103 µM [rising, full curve, poor fit]

COC(=O)C1=C(c2ccccc2OCc2ccccc2)C[C@@H]2CC[C@H]1N2C(=O)NCc1ccc(Br)cc1
cell number change: -11% | AC50 [2]: 1.16 µM [falling, single point]

COC(=O)C1=C(c2cccc(C#N)c2)C[C@@H]2CC[C@H]1N2C(=O)NCCO
cell number change: 2.37% | AC50 [2]: 0.146 µM [falling, full curve, poor fit]

CC(Cc1ccccc1)N1C(=O)c2ccccc2C1=O (stereo unspecified)
cell number change: -22.8% | AC50 [2]: 6.51 µM [falling, partial curve]

CC1=C2[C@H]3OC(=O)[C@@H](C)[C@@H]3CC[C@@]2(C)C=CC1=O
cell number change: -21% | AC50 [2]: 0.731 µM [falling, full curve]

O=C1/C(=C\c2cc3c(cc2Cl)OCO3)N2CCC1CC2
cell number change: 0.986% | AC50 [2]: 6.51 µM [falling, single point]

CCOP(=O)(Oc1ccccc1)c1c([N+](=O)[O-])cc(C(F)(F)F)cc1[N+](=O)[O-] (stereo unspecified)
cell number change: 14.9%

O=c1c2ccccc2nc(-c2ccccc2Cl)n1-c1cccc(O)c1
cell number change: -2.82% | AC50 [1]: 0.461 µM [falling, single point]

OC(CNC1CCCCC1)c1ccccc1 (stereo unspecified)
cell number change: -2.91% | AC50 [2]: 0.058 µM [falling, full curve, poor fit]

COC(=O)C1=C(c2ccccc2OCc2ccccc2)C[C@@H]2CC[C@H]1N2C(=O)NCc1ccc([N+](=O)[O-])cc1
cell number change: -6.14% | AC50 [2]: 6.51 µM [falling, single point]

Cc1cc(NC(=O)CCC(=O)N2CCC3(CC2)OCCO3)no1
cell number change: -18.4% | AC50 [1]: 0.00366 µM [falling, full curve, poor fit]

COCCCn1c(N)c(C(=O)NCc2ccco2)c2nc3ccccc3nc21
cell number change: -48.7% | AC50 [1]: 20.6 µM [falling, single point]

C/C(=N\N(C)c1ccccc1)c1c(O)[nH]c(=O)[nH]c1=O
cell number change: -40.7% | AC50 [1]: 32.6 µM [falling, single point] | AC50 [2]: 23.1 µM [falling, partial curve, poor fit]

Cc1cc(C(=O)OCC(=O)Nc2ccccc2F)c(C)n1C1CC1
cell number change: -15.3%

C[C@H]1CC[C@@H]2[C@@H](C)[C@H]3[C@H](C[C@H]4[C@@H]5CC=C6C[C@@H](O[C@@H]7O[C@H](CO)[C@H](O)[C@H](O[C@@H]8O[C@H](CO)[C@@H](O)[C@H](O)[C@H]8O)[C@H]7O[C@@H]7O[C@@H](C)[C@H](O)[C@@H](O)[C@H]7O)CC[C@]6(C)[C@H]5CC[C@]34C)N2C1
cell number change: -39.4% | AC50 [1]: 29.1 µM [falling, single point] | AC50 [2]: 25.9 µM [falling, single point]

O=C1NC(=O)C(=Cc2cn(CCOc3ccc4c(c3)OCO4)c3ccccc23)C(=O)N1
cell number change: 19.6%

C/C(=C\c1ccc(N(C)C)cc1)[N+](=O)[O-]
cell number change: -51.9% | AC50 [1]: 10.3 µM [falling, partial curve]

Cc1cccc(OP(=O)(Oc2cccc(C)c2)OC(c2ccccc2)C(F)(F)F)c1 (stereo unspecified)
cell number change: 31.3% | AC50 [1]: 4.11 µM [rising, partial curve] | AC50 [2]: 3.26 µM [rising, single point]

Cc1ccc(N(C)C(=O)Oc2cccc3ccc(C)nc23)cc1
cell number change: -9.24%

O=C(Nc1nncs1)Oc1ccccc1
AC50 [1]: 25.9 µM [falling, single point]

C[n+]1c2ccccc2nc2ccc(NCCO)cc21
cell number change: -90.7% | AC50 [1]: 29.1 µM [falling, single point] | AC50 [2]: 29.1 µM [falling, single point]

Cc1cc(OCC(=O)N2CCC(C(=O)O)(c3ccccc3)CC2)c2c(C)c(C)c(=O)oc2c1
cell number change: -2.03% | AC50 [2]: 29.1 µM [rising, single point]

CCn1c(O)c(C=Nc2ccc(S(N)(=O)=O)cc2)c(=O)n(CC)c1=S
cell number change: -12.3% | AC50 [2]: 2.06 µM [falling, partial curve]

COc1ccc(-n2c(-c3ccccc3[N+](=O)[O-])nc3ccccc3c2=O)cc1
cell number change: 14.4% | AC50 [2]: 29.1 µM [falling, single point]

COC(=O)C1=C(c2cccc(C#N)c2)C[C@@H]2CC[C@H]1N2C(=O)NCCOc1ccccc1
cell number change: -30.9% | AC50 [1]: 29.1 µM [falling, single point]

CCOc1ccc(C(Nc2ccc(C)cc2)P2(=O)OCCC(C)O2)cc1 (stereo unspecified)
AC50 [2]: 6.51 µM [rising, single point]

O=C(CCn1c(=O)oc2ccccc21)N1CCC2(CC1)OCCO2
cell number change: -16.6% | AC50 [2]: 8.2 µM [rising, partial curve, poor fit]

Fc1ccc(C2N3CCCN23)cc1 (stereo unspecified)
cell number change: -18.5% | AC50 [2]: 16.4 µM [falling, single point]

C[C@]12CC(=CO)C(=O)C[C@@H]1CC[C@@H]1[C@@H]2CC[C@@]2(C)[C@H]1CC[C@]2(C)O
cell number change: -48.9% | AC50 [1]: 16.4 µM [falling, partial curve] | AC50 [2]: 20.6 µM [falling, partial curve]

Cc1ccc(-c2nc(N(C)C3CCN(C)CC3)c3ccccc3n2)cc1
cell number change: -17.4%
